The entries are a selection whose mix differs from that of the whole data set. The calls were merged from several studies; some rest on single wells. Some of the results follow.
Experiments:
Conditions in all cases: stereoisomer not certain
[1] = tested on: T1, OR1F1
T1 sequence (whole entry): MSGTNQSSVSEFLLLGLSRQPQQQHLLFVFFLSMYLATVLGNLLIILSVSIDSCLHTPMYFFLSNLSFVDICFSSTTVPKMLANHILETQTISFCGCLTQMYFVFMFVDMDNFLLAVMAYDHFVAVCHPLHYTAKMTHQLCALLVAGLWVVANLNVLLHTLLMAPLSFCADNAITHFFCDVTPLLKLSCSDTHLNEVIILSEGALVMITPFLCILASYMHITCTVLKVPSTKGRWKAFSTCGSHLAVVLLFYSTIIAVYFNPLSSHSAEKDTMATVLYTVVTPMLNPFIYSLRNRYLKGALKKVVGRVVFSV
Outline: (§1)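 Transient luciferase assays in mammalian cell lines were common, though methods varied by source. The values come from published papers and their supplementary material, with extra details from the original authors when needed. Responsive refers to a measured signal the original authors judged statistically different from baseline, and non-responsive (inactive) to the remainder.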

Protein sequences, listed by entry. Tags and fused reporters are not part of them. Lines headed by an entry give the natural chain unless they say otherwise; changes in a name come on top.
UniProt Q8NH94: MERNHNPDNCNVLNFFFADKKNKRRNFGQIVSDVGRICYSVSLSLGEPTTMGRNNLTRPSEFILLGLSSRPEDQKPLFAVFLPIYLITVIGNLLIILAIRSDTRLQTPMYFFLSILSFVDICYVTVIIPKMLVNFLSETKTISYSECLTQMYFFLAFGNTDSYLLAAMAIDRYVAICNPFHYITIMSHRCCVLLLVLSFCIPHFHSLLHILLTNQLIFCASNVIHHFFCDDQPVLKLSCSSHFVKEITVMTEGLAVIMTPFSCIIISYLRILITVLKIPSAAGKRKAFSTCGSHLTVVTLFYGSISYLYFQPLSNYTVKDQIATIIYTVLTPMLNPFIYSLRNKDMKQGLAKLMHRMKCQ

[2] = tested on: T2, OR1FC
T2 sequence (whole entry): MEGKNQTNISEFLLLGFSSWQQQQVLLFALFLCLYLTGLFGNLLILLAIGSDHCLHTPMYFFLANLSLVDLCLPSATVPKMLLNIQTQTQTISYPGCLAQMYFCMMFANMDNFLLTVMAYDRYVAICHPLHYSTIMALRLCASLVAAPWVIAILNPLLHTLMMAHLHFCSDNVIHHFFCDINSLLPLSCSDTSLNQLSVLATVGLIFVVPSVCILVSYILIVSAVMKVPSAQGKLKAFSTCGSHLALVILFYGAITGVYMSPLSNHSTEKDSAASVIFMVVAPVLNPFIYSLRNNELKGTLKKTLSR
Outline: as §1

[3] = molecular target: T3, OR1G1 (Homo sapiens) (UniProt P47890)
T3 sequence (whole entry): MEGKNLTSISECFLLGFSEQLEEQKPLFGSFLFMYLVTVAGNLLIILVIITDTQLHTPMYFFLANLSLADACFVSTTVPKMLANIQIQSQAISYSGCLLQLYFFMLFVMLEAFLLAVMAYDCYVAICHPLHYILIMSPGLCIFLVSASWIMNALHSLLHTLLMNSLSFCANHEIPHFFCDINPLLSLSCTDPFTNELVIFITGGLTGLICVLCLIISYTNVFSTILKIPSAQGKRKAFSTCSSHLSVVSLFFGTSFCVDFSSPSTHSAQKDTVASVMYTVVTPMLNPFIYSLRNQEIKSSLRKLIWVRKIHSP
Outline: as §1

[4] = tested on: T4, OR1I1
T4 sequence (whole entry): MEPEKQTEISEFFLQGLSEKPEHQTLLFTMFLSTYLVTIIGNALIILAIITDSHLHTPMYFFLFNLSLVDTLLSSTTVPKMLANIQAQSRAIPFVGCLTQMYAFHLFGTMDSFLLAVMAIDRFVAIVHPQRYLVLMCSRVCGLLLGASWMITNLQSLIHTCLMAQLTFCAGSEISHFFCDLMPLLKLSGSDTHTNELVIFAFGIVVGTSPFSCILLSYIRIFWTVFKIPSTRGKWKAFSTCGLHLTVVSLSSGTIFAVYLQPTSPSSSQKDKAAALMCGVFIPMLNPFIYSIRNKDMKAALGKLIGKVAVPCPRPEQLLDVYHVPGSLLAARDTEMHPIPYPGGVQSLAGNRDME
Outline: as §1

[5] = molecular target: T5, OR1J1 (Homo sapiens) (UniProt Q8NGS3)
T5 sequence (whole entry): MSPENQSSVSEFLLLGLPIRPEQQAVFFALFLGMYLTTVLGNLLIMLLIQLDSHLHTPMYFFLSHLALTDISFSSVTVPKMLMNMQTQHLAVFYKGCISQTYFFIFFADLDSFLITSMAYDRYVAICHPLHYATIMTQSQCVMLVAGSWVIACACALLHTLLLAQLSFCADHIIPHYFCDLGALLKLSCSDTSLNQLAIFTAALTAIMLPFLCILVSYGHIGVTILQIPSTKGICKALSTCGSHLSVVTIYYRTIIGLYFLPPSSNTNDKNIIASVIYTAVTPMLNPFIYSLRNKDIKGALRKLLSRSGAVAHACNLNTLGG
Outline: as §1

[6] = molecular target: T6, OR1J2 (Homo sapiens) (UniProt Q8NGS2)
T6 sequence (whole entry): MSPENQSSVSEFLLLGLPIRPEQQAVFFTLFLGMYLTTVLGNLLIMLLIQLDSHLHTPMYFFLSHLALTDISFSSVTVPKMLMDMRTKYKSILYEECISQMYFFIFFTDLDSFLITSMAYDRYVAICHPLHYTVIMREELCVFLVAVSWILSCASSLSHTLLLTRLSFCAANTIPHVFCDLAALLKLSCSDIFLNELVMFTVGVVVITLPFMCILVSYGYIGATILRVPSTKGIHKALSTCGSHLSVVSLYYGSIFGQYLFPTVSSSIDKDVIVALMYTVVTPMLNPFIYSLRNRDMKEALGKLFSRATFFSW
Outline: as §1

[7] = molecular target: T7, OR1J4 (Homo sapiens) (UniProt Q8NGS1)
T7 sequence (whole entry): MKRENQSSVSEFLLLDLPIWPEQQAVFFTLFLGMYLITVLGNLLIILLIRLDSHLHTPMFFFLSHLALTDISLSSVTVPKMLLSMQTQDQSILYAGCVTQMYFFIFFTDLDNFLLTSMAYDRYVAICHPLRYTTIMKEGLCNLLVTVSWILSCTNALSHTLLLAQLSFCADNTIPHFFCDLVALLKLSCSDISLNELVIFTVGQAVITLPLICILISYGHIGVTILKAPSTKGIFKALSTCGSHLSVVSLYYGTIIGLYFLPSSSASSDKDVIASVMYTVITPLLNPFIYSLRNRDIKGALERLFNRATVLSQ
Outline: as §1

[8] = molecular target: T8, OR1K1 (Homo sapiens) (UniProt Q8NGR3)
T8 sequence (whole entry): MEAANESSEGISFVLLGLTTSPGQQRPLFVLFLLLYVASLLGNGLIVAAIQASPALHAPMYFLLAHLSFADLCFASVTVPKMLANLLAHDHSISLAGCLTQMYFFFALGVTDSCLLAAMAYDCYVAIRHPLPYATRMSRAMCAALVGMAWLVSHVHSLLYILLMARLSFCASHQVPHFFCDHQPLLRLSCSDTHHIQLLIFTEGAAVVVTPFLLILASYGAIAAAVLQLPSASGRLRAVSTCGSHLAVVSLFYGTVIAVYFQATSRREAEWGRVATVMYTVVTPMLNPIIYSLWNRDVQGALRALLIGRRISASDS
Outline: as §1

[9] = molecular target: OR1I1 (Homo sapiens) (UniProt O60431)
Outline: as §1

[10] = molecular target: OR1L1 (Homo sapiens) (UniProt Q8NH94)
Outline: as §1
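Further: active if original authors judged signal statistically different from baseline.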

SMILES	odorant receptor agonist call [1]	odorant receptor agonist call [2]	odorant receptor agonist call [3]	odorant receptor agonist call [4]	odorant receptor agonist call [5]	odorant receptor agonist call [6]	odorant receptor agonist call [7]	odorant receptor agonist call [8]	odorant receptor agonist call [9]	odorant receptor agonist call [10]
CCC=CCCO	inactive	inactive	inactive	inactive	active	inactive	inactive	inactive		
CC(C)=CCCC(C)=CC=O	inactive	inactive	active	inactive	active	inactive	inactive	inactive		
CC12CCC(C1)C(C)(C)C2=O (stereo not given)	inactive	inactive	inactive	inactive	inactive	inactive	inactive	inactive		
CC(=O)C(C)=O	inactive	inactive	inactive	inactive	inactive	inactive	inactive	inactive		
CCC1(O)C2(C)CCC(C2)C1(C)C (stereo not given)	inactive	inactive	inactive	inactive	inactive	inactive	inactive	inactive		
CC(C)C(=O)O	inactive	inactive	inactive	inactive	inactive	inactive	inactive	inactive		
CC(C)CCC(=O)O	inactive	inactive	inactive	inactive	inactive	inactive	inactive	inactive		
COc1ccccc1O	inactive	inactive	active	inactive	inactive	inactive	inactive	inactive		
CCCCCCCCCC=O	inactive	inactive	active	inactive	inactive	inactive	inactive	inactive		
CC1CCC(C(C)C)C(O)C1 (stereo not given)	inactive	inactive	active	active	inactive	inactive	inactive	inactive		
CCCCO	inactive	inactive	inactive	inactive	inactive	inactive	active	inactive		
CCCC(=O)O	inactive	active	inactive	inactive	inactive	inactive	inactive	inactive		
CC(C)(C)c1ccc(CCC=O)cc1	inactive	inactive	inactive	inactive	inactive	inactive	inactive	inactive		
COc1cc(C=O)ccc1O	inactive	inactive	active	inactive	inactive	inactive	inactive	inactive		
CC12C=CCC1C1CCC3CC(=O)CCC3(C)C1CC2 (stereo not given)	inactive	inactive	inactive	inactive	inactive	inactive	inactive	inactive	inactive	inactive
O=C1CCCCCCCCCCCC(=O)OCCO1	inactive	inactive	inactive	inactive	inactive	inactive	inactive	inactive		
CC=Cc1ccc(O)c(OC)c1	inactive	active	inactive	inactive	active	inactive	inactive	inactive		
CC1COCc2cc3c(cc21)C(C)(C)C(C)C3(C)C (stereo not given)	active	active	active	active	active	active	active	active		
CC12CCC(CC1)C(C)(C)O2	inactive	inactive	inactive	inactive	inactive	inactive	inactive	inactive		
CCCCCCCOC(C)=O	inactive	inactive	inactive	inactive	inactive	inactive	inactive	inactive		
CC(=O)OC1CC2CCC1(C)C2(C)C (stereo not given)	inactive	active	inactive	inactive	inactive	inactive	inactive	inactive		
CCCCCCCC=O	inactive	inactive	active	inactive	inactive	inactive	inactive	inactive		
c1ccc(Oc2ccccc2)cc1	inactive	inactive	inactive	inactive	inactive	inactive	inactive	inactive		
CC1=CCC(C(C)(C)O)CC1 (stereo not given)	inactive	inactive	inactive	inactive	inactive	inactive	inactive	inactive		
C=CCc1ccc(OC)c(OC)c1	inactive	inactive	inactive	inactive	inactive	inactive	inactive	inactive		
C=CC(C)(O)CCC=C(C)C (stereo not given)	inactive	inactive	inactive	inactive	inactive	inactive	inactive	inactive		
O=C1CCCCCCCCCCCCCCO1	inactive	inactive	inactive	inactive	inactive	inactive	inactive	inactive		

Among those listed so far, these have a COOH group:
SMILES	odorant receptor agonist call [1]	odorant receptor agonist call [2]	odorant receptor agonist call [3]	odorant receptor agonist call [4]	odorant receptor agonist call [5]	odorant receptor agonist call [6]	odorant receptor agonist call [7]	odorant receptor agonist call [8]	odorant receptor agonist call [9]	odorant receptor agonist call [10]
CC(C)C(=O)O	inactive	inactive	inactive	inactive	inactive	inactive	inactive	inactive		
CC(C)CCC(=O)O	inactive	inactive	inactive	inactive	inactive	inactive	inactive	inactive		
CCCC(=O)O	inactive	active	inactive	inactive	inactive	inactive	inactive	inactive		

Later entries

SMILES	odorant receptor agonist call [1]	odorant receptor agonist call [2]	odorant receptor agonist call [3]	odorant receptor agonist call [4]	odorant receptor agonist call [5]	odorant receptor agonist call [6]	odorant receptor agonist call [7]	odorant receptor agonist call [8]	odorant receptor agonist call [9]	odorant receptor agonist call [10]
C=CCSCC=C	inactive	inactive	inactive	inactive	inactive	inactive	inactive	inactive		
CCCCCCCCC=O			active							
CC(=O)OC(C)(C)C1CC=C(C)CC1 (stereo not given)	inactive	inactive	inactive	inactive	inactive	inactive	inactive	inactive		
CCCCCCCCCCC=O	inactive	inactive	active	inactive	inactive	inactive	inactive	inactive		
CCCCCC(C)=O	inactive		inactive	inactive		inactive	inactive	inactive		
CC1=NC(C)SC1C (stereo not given)	inactive		inactive	inactive		inactive	inactive	inactive		
COC(=O)c1ccccc1O	inactive	inactive	inactive	inactive	inactive	inactive	inactive	inactive		
COc1cc(C)ccc1O	inactive	inactive	inactive	inactive	inactive	inactive	inactive	inactive		
CC(=O)OCC=C(C)CCC=C(C)C	inactive	active	inactive	inactive	inactive	inactive	inactive	inactive		
CC(C)C=O	inactive	inactive	inactive	inactive	inactive	inactive	inactive	inactive		
CCCCCCC=O			active							
CC(=O)c1ccccc1	inactive		active	inactive		inactive	inactive	inactive		
CCCCCCCCOC(C)=O	inactive	inactive	inactive	inactive	inactive	inactive	inactive	inactive		
O=CCc1ccccc1	inactive	active	inactive	inactive	active	inactive	inactive	inactive		
c1cnccn1	inactive	inactive	active	inactive	inactive	inactive	inactive	inactive		
CCCCCC(=O)O	inactive	inactive	inactive	inactive	inactive	inactive	inactive	inactive		
C=C(C)C1CCC2=CC(=O)CC(C)C2(C)C1 (stereo not given)		active			active					
CC(C)(O)CCCC1=CCC(C=O)CC1 (stereo not given)		inactive	active		inactive					
CC12C=CCC1C1CCC3=CC(=O)CCC3(C)C1CC2 (stereo not given)	inactive	inactive	inactive	inactive	inactive	inactive	inactive	inactive		
COC(=O)c1ccccc1	inactive		inactive	inactive		inactive	inactive	inactive		
CCCCCOC(C)=O	inactive	inactive	inactive	inactive	inactive	inactive	inactive	inactive		
C=CCc1ccc(OC(C)=O)c(OC)c1	inactive	active		inactive	active	inactive	inactive	inactive		
CCCCCCCC=CC=O	inactive	inactive	inactive	active	inactive	inactive	inactive	inactive		
CCCCCCOC(=O)CCC	inactive	inactive	inactive	inactive	inactive	inactive	inactive	inactive		
O=C1CCCCC1	inactive		inactive	inactive		inactive	inactive	inactive		
CC(C)CC(=O)O	inactive	inactive	inactive	inactive	inactive	inactive	inactive	inactive		
